# Test system: NOSNoc
# Assay: NOSNoc activity, oxyhemoglobin spectrophotometric assay (kinetics and inhibition)
# Format: biochemical, Nocardia species (NRRL 5646)
# Conditions: for Ki for L-NOHA as substrate relative to Ki for L-arginine as substrate: times higher / fold greater; for Km relative to that for L-arginine: Km of L-NOHA greater than Km of L-arginine
# Protocol: Assays for NOS activity were carried out using a Shimadzu 160 spectrophotometer by observing the increase in absorbance at 401 nm at 25° C. A typical sample assay contained 50 mM potassium phosphate buffer (pH 7.5), 4 μM oxyHb, 100 μM L-arginine of L-NOHA (for kinetic experiments), 100 μM NADPH, 1 mM CaCl2, 10 μM FAD, 10 μM FMN, 80 μM H4 B, 150 μM DTT and 0.1-2 μg enzyme in a final volume of 1 ml. For assays, the reference cuvette contained all components except for L-arginine or L-NOHA. All assays were initiated by adding enzyme.
Structure (SMILES),Ki for L-NOHA as substrate relative to Ki for L-arginine as substrate,Km relative to that for L-arginine,Km relative to that for L-arginine (listed as L-NOPHA) [fold]
CNC(=N)NCCC[C@H](N)C(=O)O [N^G -methyl-L-arginine],0.6 fold,–,–
N=C(NCCC[C@H](N)C(=O)O)N[N+](=O)[O-] [N^G -nitro-L-arginine],approximately 1.2 fold,–,–
N=C(NO)NCCC[C@H](N)C(=O)O [N^G -Hydroxy-L-arginine],–,about 3 fold,~3

# From patent US5759835A, “Bacterial nitric oxide synthase” (priority 1995, dated 1998)
